PubChem BioAssay AID493027 (The Scripps Research Institute Molecular Screening Center, 2011)
Several values for one entry are separate records, joined by “and”; a condition that tells them apart may be missing. Identical values can stand only once. Among all 2,000 compounds or so, about 45 (2%) were called active.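 Rule for the calls: active = inhibition above the screen-wide mean inhibition plus 3 SD (cut at about 44% in these data); inactive = the rest.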 The list shows a part of the results.

The chains behind the UniProt entries cited, without tags or fusion partners. Where a name states a change or a piece, a line headed by the entry shows the natural chain unless it says otherwise.
UniProt O60240: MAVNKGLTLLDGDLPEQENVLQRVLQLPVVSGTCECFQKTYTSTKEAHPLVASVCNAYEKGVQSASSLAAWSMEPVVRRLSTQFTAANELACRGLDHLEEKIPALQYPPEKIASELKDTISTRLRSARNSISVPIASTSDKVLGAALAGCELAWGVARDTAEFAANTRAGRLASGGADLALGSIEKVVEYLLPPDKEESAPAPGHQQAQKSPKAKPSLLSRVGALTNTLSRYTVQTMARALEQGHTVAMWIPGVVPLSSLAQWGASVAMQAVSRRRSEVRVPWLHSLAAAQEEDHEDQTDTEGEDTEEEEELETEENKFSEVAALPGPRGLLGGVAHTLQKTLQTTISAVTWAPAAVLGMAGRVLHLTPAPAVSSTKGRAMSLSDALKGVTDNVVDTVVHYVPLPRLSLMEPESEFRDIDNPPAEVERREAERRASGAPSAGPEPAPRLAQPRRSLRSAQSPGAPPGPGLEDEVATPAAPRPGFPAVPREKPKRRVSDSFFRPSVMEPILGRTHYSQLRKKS
UniProt Q8WTS1: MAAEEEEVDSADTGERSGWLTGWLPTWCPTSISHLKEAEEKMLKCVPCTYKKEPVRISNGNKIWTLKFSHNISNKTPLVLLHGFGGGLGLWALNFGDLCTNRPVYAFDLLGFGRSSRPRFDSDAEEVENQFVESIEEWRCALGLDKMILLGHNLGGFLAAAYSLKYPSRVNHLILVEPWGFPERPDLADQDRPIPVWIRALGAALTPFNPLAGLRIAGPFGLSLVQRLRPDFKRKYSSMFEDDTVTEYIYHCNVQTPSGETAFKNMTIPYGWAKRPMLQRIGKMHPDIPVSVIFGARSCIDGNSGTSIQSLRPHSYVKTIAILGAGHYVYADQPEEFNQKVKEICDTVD

These compounds were tested against Perilipin-1 (Homo sapiens) + 1-acylglycerol-3-phosphate O-acyltransferase ABHD5 (Homo sapiens) (UniProt O60240+Q8WTS1) (assay: blockers of ABHD5 binding to perilipin-1 – cell lysate, split luciferase complementation, luminescence, NIH validation set, pilot screen (AID 493027;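 note: 0% = DMSO wells with the 100% control not disclosed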)). Settings: split G. princeps luciferase complementation, 4 h; at 7.9 µM, hits give high values.
Cc1c(CCOC(=O)CC23CC4CC(CC(C)(C4)C2)C3)sc[n+]1Cc1ccc([N+](=O)[O-])cc1 was tested, and the inhibition was inactive: 6.43%. With CC(=O)OCC(=O)[C@@]1(O)CC[C@H]2[C@@H]3CCC4=CC(=O)C=C[C@]4(C)[C@H]3[C@@H](O)C[C@@]21C the inhibition was inactive: 2.14%. In the case of COC(=O)c1ccc(NC(=O)c2ccccc2SC)cc1, the inhibition is reported as inactive: -0.04%. COc1ccc(/C=C(/C#N)c2cccnc2)cc1OC was tested, and the inhibition was inactive: -0.93%. With C[C@H](CS)C(=O)N1CCC[C@H]1C(=O)O the inhibition was inactive: -7.65%. COc1cccc(N2CC34C=CC(O3)C(C(=O)O)C4C2=O)c1 (stereo not drawn) was tested, and the inhibition was inactive: -6.88%. With CC(=O)c1cn(C)c(=O)[nH]c1=O the inhibition was inactive: -0.12%. In the case of CC1=CC2(O)OCCN(CCO)C2=CC1=O (stereo not drawn), the inhibition is reported as inactive: -7.85%. With Cc1nonc1CN(C)C(=O)c1ccc(OC2CCN(C(=O)c3cccnc3)CC2)cc1 the inhibition was inactive: -0.91%. NCCc1ccc(O)c(O)c1 was tested, and the inhibition was inactive: -5.35%. For CC(C)(C)c1ccc(/C=C/C(=O)N2CCCCC2)cc1, the inhibition was inactive: -10.4%. With OC(CCN1CCCC1)(c1ccccc1)C1CCCCC1 (stereo not drawn) the inhibition was inactive: -11.5%. For COCCNC(=O)CSc1ccc(Cl)cc1, the inhibition was inactive: -15.8%. In the case of C[C@H](NC(=O)C1(c2ccccc2)CCN(C(=O)[C@H]2CSCN2C(=O)OC(C)(C)C)CC1)C(=O)O, the inhibition is reported as inactive: 4.07%. In the case of COc1cc(CO)ccc1OCc1nnnn1-c1ccc(C)cc1, the inhibition is reported as inactive: -1.79%. In the case of CCCCOc1ccc(C(=O)CCN2CCCCC2)cc1, the inhibition is reported as inactive: 38.6%. NS(=O)(=O)c1cc2c(cc1Cl)NC(C1C[C@H]3C=C[C@@H]1C3)NS2(=O)=O (stereo partly drawn) was tested, and the inhibition was inactive: 0.4%. For S=C(NCCOCCOCCNC(=S)Nc1ccccc1)Nc1ccccc1, the inhibition was inactive: 2.22%. For Nc1[nH]c(=O)ncc1F, the inhibition was inactive: -1.49%. With CC(C)(C)OC(=O)N1CC(O)CC1C(=O)OCC(=O)c1ccc(Cl)cc1 (stereo not drawn) the inhibition was inactive: -9.04%. For COc1ccc(/C=C\C(=O)c2c(O)ccc3c(C)cc(=O)oc23)cc1OC, the inhibition was active: 62.7%. In the case of CCOC(=O)c1oc2cc(OCC(N)=O)ccc2c(=O)c1-c1ccc(OC)c(OC)c1, the inhibition is reported as inactive: -4.45%. With CN(C)CCOC(=O)C(c1ccccc1)C1(O)CCCC1 (stereo not drawn) the inhibition was inactive: -5.23%. In the case of C[C@]12CCC3C(CC=C4C[C@@H](O)CC[C@@]43C)C1CCC2[C@]1(C)CCC(=O)O1 (stereo partly drawn), the inhibition is reported as inactive: 0.59%. In the case of O=C(O)c1ccccc1Nc1cccc(C(F)(F)F)c1, the inhibition is reported as inactive: 2.97%. With O=C(NCCc1nc2ccccc2[nH]1)c1cccc(Br)c1 the inhibition was inactive: -5.23%. In the case of Cc1ccc2c(c1)c(C)cc(=O)n2CCC(=O)O, the inhibition is reported as inactive: -12.7%. In the case of CC(C)(C)NCC(O)COc1ccccc1C(=O)CCc1ccccc1 (stereo not drawn), the inhibition is reported as inactive: -1.21%. Nc1ccc(C(=O)O)c(O)c1 was tested, and the inhibition was inactive: -8.33% and inactive: -9.23%. In the case of N=c1nc(N2CCCCC2)cc(N)n1O, the inhibition is reported as inactive: 0.09%. With CC(=O)Oc1ccc(C(c2ccc(OC(C)=O)cc2)c2ccccn2)cc1 the inhibition was inactive: 8.99%. With COc1ccc(C2OC[C@H]3O[C@H](O)[C@H](NC(C)=O)[C@@H](O)[C@@H]3O2)cc1 (stereo partly drawn) the inhibition was inactive: -8.14%. O=[N+]([O-])c1ccc(O)c2ncccc12 was tested, and the inhibition was inactive: -11.9%. For Cc1ccc(/C=N/NC(=O)C2(C)CC2(Br)Br)cc1 (stereo not drawn), the inhibition was inactive: 3.56%. CC(NCCc1ccc(O)cc1)C(O)c1ccc(O)cc1 (stereo not drawn) was tested, and the inhibition was inactive: -2.57%. For CC(=O)OCC1OC(n2ccc(=O)[nH]c2=O)C(O)C1O (stereo not drawn), the inhibition was inactive: -5.53%. COc1cccc(CC(=O)NCC2COc3ccccc3O2)c1OC (stereo not drawn) was tested, and the inhibition was inactive: 5.43%. For Cc1ccc2c(CN3CCN(Cc4ccc5c(c4)OCO5)CC3)cc(=O)oc2c1C, the inhibition was inactive: 9.15%. For COC(=O)C1=NN(C(=O)c2cccc(Br)c2)C(O)(c2ccc(Cl)cc2)C1 (stereo not drawn), the inhibition was inactive: 4.06%. In the case of CCC1(c2ccccc2)NC(=S)N(c2ccc(C)c(C)c2)N1 (stereo not drawn), the inhibition is reported as inactive: -0.55%. Cc1nc2ccccc2n1CC(O)Cn1c2ccccc2c2ccccc21 (stereo not drawn) was tested, and the inhibition was inactive: 19%. In the case of O=C(O)CCCCCN=C1CCc2ccccc2N1, the inhibition is reported as inactive: -4.17%. For CC1(C)CC(=O)C2=C(C1)c1c(ccc3ccccc13)NC2c1ccco1 (stereo not drawn), the inhibition was inactive: 21%. C[C@H](CCC(=O)O)[C@H]1CC[C@H]2[C@@H]3C(=O)C[C@@H]4CC(=O)CC[C@]4(C)[C@H]3CC(=O)[C@]12C was tested, and the inhibition was inactive: -0.3%. CCOc1ccc(C(=O)NC(C)C2COc3ccccc3O2)cc1 (stereo not drawn) was tested, and the inhibition was inactive: 5.48%. In the case of Cc1nc2sccn2c(=O)c1CCN1CCC(=C(c2ccc(F)cc2)c2ccc(F)cc2)CC1, the inhibition is reported as inactive: 9.72%. For CCOC(=O)C1=C(C)NC(C)=C(C(=O)OC)C1c1cccc(Cl)c1Cl (stereo not drawn), the inhibition was inactive: 9.57%. Cc1ccc2[nH]c3c(c2c1)CCNC3=O was tested, and the inhibition was inactive: -4.86%. CCSC(=O)CCCCCCCCCCCO was tested, and the inhibition was inactive: -18.4%. With C=CCc1ccc(OCC(O)COc2ccc(CC=C)cc2OC)c(OC)c1 the inhibition was inactive: -1.62%. For COc1ccc(-c2[nH]ncc2CN(C)C(C)c2ccon2)c(OC)c1 (stereo not drawn), the inhibition was inactive: -7.51%. In the case of Cc1ncoc1C(=O)N1CCCC(C(=O)c2ccc(-c3ccccc3)c(F)c2)C1 (stereo not drawn), the inhibition is reported as inactive: 3.98%. O=C(O)c1cnccn1 was tested, and the inhibition was inactive: 1.39%. CCN(CC)Cc1c[nH]c2c(C(=O)OC)cccc12 was tested, and the inhibition was inactive: -5.49%. For COc1ccc(/C=C/C(=O)c2cc3cccc(OC)c3oc2=O)cc1, the inhibition was active: 60.6%. CN1CCN2c3ccccc3Cc3ccccc3C2C1 (stereo not drawn) was tested, and the inhibition was inactive: -6.34%. With O=C(O)CCC(=O)c1ccc(-c2ccccc2)cc1 the inhibition was inactive: -10.1%. For O=C1c2cccc3cccc(c23)C(=O)N1c1ccccn1, the inhibition was inactive: -1.6%. In the case of Cc1cc(C)c(NC(=O)NC(=O)C(Cl)(Cl)Cl)c(C)c1, the inhibition is reported as inactive: -16.6%. In the case of CC(C)NNC(=O)c1ccncc1, the inhibition is reported as inactive: -4.87%. In the case of CC(=O)N(CCC1(C(C)C)CCOC(C)(C)C1)Cc1ccco1 (stereo not drawn), the inhibition is reported as inactive: 2.37%. In the case of CC(=O)N=c1sc(S(N)(=O)=O)nn1C, the inhibition is reported as inactive: -1.46%. With Cc1ccccc1C(=O)NNc1ncnc2c1cnn2C the inhibition was inactive: -10.4%. With COc1ccc2[nH]cc(C3N4CC5(C)CN3CC(C)(C4)C5=O)c2c1 (stereo not drawn) the inhibition was inactive: -6.37%. COc1c2occc2c(OC)c2c(=O)cc(C(F)(F)C(F)(F)F)oc12 was tested, and the inhibition was inactive: -3.55%. CCOc1ccc2[nH]c3c(=O)n(CCc4ccc(OC)cc4)cnc3c2c1 was tested, and the inhibition was inactive: -9.05%. In the case of OC(CCN1CCCCC1)(c1ccccc1)c1ccccc1, the inhibition is reported as inactive: 5.55%. In the case of CC(=O)[C@H]1[C@H](C#N)C[C@H]2[C@@H]3CC=C4C[C@@H](O)CC[C@]4(C)[C@H]3CC[C@@]21C, the inhibition is reported as inactive: 12.6%. In the case of COc1ccc(C(CC(=O)N2CCOCC2)C(C)C)cc1 (stereo not drawn), the inhibition is reported as inactive: -0.52%. For N=c1ccn(CC(=O)NC(N)=O)c2ccccc12, the inhibition was inactive: 2.11%. With CC1(C)CC(C(CC(=O)N2CCCC2)Cc2ccccc2)CCO1 (stereo not drawn) the inhibition was inactive: -12.5%. OC(COCc1ccccc1)CN1CCN(Cc2ccc3c(c2)OCO3)CC1 (stereo not drawn) was tested, and the inhibition was inactive: -12.6%. O=C(NCC1CCCO1)c1ccc(OC2CCN(C(=O)C3CC3)CC2)cc1 (stereo not drawn) was tested, and the inhibition was inactive: 0.05%. In the case of O=C(O)C1CCN(C(=O)COc2ccc3c4c(c(=O)oc3c2)CCC4)CC1, the inhibition is reported as inactive: -8.92%. With Cc1cc(-c2nn(-c3ccccc3F)cc2CN2CCC(O)CC2)c(C)s1 the inhibition was inactive: -2.82%. With CC[C@H](CO)NCCN[C@H](CC)CO the inhibition was inactive: -1.97%. Cc1ccccc1NC(=O)C1(C)Cc2ccccc2C(=O)O1 (stereo not drawn) was tested, and the inhibition was inactive: -6.22%. For CCOC(=O)[C@H]1O[C@@H]1C(=O)N[C@@H](CC(C)C)C(=O)NCCC(C)C, the inhibition was inactive: -15.4%. For CC(C)NCC(O)COc1ccc(CC(N)=O)cc1 (stereo not drawn), the inhibition was inactive: 1.91%. In the case of CC1=NS(=O)(=O)c2cc(Cl)ccc2N1, the inhibition is reported as inactive: -5.93%. For c1ccc(-c2ccc(C(c3ccccc3)n3ccnc3)cc2)cc1 (stereo not drawn), the inhibition was inactive: 7.37%. CN(C)CCC(c1ccc(Br)cc1)c1ccccn1 (stereo not drawn) was tested, and the inhibition was inactive: -7.82%. CC(=O)NC1C(OCc2ccccc2)OC(COC(C)=O)C(OC(C)=O)C1OC(C)=O (stereo not drawn) was tested, and the inhibition was inactive: 2.99%. In the case of CCOc1ccc(NC(=O)N[C@@H](CCSC)C(=O)OC)cc1, the inhibition is reported as inactive: -9.1%. In the case of C[C@]12CCC(=O)C=C1CC[C@@H]1[C@@H]2CC[C@@]2(C)[C@H]1CC[C@]2(O)C(=O)CO, the inhibition is reported as inactive: 1.92%. Cc1oc2ccc(OC(=O)c3cccs3)cc2c1C(=O)OC(C)C was tested, and the inhibition was inactive: 1.63%. For COc1ccc(C2NCCC3(O)CCCCC23)c(OC)c1OC (stereo not drawn), the inhibition was inactive: -1.74%. With COc1ccc(C2C(C#N)=C(N)Oc3cc(C)[nH]c(=O)c32)c(OC)c1OC (stereo not drawn) the inhibition was inactive: -14.5%. CCC1(c2ccccc2)C(=O)NCNC1=O was tested, and the inhibition was inactive: 1.31%. For O=C(CSCc1ccccc1)NCCCN1CCOCC1, the inhibition was inactive: -14.5%. CCC(C(=O)Nc1ccc2c(c1)OCCO2)c1ccccc1 (stereo not drawn) was tested, and the inhibition was inactive: -3.61%. In the case of Cc1ccc(C2CC(=O)C(C=NCCN3CCN(C(=S)Nc4ccccc4)CC3)=C(O)C2)cc1 (stereo not drawn), the inhibition is reported as inactive: -4.47%. For O=C(OCC1OC2OC3(CCCCC3)OC2C2OC3(CCCCC3)OC12)c1ccccc1 (stereo not drawn), the inhibition was inactive: -8.19%. In the case of c1ccc2c3c(c(CN4CCCCC4)cc2c1)COC3, the inhibition is reported as inactive: -4.68%. Cc1ccc(CSCC(=O)N2CCCC2)cc1 was tested, and the inhibition was inactive: -3%. With Cc1ccc(OCc2nc(-c3cccnc3)no2)cc1C the inhibition was inactive: 4.89%. Nc1cnn(C2OC(CO)C(O)C2O)c(=O)n1 (stereo not drawn) was tested, and the inhibition was inactive: -9.89%. In the case of Clc1ccc2c(c1)CCc1cccnc1C2=C1CCNCC1, the inhibition is reported as inactive: 1.26%.
